In the supplement of paper PMC7666118:
This is one part of the list.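 Rule for the calls: active = dose-dependent thermal stabilisation significant by F-test of dose-response against flat model at 10% FDR; inactive = not significant.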

The chains behind the UniProt entries cited, without tags or fusion partners. Where a name states a change or a piece, a line headed by the entry shows the natural chain unless it says otherwise.
UniProt O60739, whole entry: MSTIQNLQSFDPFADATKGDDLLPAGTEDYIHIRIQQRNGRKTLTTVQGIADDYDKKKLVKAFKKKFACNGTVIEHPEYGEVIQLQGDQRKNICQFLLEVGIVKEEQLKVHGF
UniProt Q6PIW4: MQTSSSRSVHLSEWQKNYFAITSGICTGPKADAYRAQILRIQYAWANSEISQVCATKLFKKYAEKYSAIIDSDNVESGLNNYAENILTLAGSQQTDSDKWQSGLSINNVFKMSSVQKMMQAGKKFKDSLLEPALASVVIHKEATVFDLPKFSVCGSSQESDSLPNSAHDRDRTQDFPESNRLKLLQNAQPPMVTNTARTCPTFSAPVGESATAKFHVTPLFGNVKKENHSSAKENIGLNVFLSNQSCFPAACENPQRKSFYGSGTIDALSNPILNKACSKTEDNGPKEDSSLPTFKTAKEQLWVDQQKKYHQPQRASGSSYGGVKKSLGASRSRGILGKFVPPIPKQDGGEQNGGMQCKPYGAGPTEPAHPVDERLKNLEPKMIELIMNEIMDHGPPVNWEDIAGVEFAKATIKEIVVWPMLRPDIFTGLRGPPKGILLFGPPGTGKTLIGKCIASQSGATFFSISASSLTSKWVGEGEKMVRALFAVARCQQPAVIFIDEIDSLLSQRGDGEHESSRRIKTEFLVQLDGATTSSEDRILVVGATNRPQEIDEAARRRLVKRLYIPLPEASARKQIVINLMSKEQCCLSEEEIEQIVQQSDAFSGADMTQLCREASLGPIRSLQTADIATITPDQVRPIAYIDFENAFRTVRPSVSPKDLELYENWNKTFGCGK
UniProt Q9Y6X5: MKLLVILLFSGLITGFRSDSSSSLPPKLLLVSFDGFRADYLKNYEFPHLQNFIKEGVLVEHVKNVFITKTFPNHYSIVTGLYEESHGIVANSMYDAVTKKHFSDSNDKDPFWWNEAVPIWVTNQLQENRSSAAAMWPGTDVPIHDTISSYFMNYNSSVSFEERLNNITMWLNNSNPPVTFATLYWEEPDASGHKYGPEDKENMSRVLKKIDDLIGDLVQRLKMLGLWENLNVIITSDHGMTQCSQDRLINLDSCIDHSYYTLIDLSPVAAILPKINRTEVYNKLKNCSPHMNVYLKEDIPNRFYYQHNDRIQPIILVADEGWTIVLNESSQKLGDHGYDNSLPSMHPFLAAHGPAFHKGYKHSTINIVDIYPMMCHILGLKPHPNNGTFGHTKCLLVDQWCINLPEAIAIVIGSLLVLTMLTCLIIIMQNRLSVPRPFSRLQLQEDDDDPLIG
UniProt Q5RKV6, whole entry: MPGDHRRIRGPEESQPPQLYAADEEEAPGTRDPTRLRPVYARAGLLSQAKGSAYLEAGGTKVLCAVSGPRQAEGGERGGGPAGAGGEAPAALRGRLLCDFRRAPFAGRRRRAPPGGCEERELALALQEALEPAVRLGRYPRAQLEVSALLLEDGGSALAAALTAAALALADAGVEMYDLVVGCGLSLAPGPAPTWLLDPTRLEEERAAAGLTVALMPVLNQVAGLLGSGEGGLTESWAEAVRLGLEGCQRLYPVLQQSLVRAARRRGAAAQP
UniProt Q14674: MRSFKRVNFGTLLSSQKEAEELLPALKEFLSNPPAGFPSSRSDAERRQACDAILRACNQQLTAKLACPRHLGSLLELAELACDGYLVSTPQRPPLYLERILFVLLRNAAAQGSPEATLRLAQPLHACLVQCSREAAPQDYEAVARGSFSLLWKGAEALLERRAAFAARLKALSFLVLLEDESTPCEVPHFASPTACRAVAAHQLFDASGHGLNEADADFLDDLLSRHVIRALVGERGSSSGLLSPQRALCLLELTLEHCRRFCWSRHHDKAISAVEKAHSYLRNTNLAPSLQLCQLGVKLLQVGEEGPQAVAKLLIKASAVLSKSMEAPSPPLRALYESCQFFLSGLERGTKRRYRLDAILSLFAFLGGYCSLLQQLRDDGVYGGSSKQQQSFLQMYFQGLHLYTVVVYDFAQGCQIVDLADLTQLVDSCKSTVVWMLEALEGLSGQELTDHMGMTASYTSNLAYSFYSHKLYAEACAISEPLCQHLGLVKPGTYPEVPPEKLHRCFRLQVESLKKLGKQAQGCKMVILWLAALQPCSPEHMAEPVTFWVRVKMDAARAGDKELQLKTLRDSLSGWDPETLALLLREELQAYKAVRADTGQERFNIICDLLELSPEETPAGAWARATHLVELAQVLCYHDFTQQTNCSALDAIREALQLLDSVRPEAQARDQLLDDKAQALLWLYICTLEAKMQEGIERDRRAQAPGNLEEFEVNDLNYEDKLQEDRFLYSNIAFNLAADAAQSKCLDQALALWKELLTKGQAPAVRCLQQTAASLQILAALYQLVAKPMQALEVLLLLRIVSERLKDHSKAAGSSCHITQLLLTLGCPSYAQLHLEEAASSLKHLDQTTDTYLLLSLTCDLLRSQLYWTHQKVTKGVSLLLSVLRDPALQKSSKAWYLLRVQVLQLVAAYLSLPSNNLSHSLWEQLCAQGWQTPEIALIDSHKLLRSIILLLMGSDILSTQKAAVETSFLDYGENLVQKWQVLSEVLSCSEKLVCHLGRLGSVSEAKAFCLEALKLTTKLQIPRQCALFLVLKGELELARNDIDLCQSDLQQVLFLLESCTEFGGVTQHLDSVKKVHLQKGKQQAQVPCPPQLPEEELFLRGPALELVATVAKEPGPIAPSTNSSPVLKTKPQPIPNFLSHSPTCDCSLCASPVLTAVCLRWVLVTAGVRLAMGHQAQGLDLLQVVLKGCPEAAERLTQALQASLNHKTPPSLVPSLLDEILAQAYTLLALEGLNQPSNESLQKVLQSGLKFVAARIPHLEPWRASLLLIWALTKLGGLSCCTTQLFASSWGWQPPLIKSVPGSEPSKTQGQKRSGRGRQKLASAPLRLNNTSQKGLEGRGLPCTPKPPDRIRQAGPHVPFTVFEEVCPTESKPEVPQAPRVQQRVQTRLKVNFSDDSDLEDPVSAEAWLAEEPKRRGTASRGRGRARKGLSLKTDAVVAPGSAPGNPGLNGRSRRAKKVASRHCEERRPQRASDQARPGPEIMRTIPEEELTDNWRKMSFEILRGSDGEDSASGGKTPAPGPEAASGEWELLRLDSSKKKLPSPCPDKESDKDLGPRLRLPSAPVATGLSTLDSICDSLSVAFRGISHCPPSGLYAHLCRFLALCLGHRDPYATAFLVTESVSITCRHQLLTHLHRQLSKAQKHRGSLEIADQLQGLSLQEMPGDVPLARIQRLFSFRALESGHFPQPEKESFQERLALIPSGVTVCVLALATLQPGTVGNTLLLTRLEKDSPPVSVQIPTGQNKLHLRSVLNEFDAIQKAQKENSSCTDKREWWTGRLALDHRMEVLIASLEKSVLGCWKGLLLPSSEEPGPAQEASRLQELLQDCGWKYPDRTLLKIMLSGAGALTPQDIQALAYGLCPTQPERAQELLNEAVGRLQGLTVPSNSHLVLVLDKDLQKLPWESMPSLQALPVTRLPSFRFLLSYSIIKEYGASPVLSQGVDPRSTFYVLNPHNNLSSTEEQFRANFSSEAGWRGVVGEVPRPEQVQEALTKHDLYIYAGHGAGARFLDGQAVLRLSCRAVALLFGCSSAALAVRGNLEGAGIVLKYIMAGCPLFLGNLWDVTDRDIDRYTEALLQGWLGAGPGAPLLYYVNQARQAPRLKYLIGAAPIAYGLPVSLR
UniProt Q6PJG2: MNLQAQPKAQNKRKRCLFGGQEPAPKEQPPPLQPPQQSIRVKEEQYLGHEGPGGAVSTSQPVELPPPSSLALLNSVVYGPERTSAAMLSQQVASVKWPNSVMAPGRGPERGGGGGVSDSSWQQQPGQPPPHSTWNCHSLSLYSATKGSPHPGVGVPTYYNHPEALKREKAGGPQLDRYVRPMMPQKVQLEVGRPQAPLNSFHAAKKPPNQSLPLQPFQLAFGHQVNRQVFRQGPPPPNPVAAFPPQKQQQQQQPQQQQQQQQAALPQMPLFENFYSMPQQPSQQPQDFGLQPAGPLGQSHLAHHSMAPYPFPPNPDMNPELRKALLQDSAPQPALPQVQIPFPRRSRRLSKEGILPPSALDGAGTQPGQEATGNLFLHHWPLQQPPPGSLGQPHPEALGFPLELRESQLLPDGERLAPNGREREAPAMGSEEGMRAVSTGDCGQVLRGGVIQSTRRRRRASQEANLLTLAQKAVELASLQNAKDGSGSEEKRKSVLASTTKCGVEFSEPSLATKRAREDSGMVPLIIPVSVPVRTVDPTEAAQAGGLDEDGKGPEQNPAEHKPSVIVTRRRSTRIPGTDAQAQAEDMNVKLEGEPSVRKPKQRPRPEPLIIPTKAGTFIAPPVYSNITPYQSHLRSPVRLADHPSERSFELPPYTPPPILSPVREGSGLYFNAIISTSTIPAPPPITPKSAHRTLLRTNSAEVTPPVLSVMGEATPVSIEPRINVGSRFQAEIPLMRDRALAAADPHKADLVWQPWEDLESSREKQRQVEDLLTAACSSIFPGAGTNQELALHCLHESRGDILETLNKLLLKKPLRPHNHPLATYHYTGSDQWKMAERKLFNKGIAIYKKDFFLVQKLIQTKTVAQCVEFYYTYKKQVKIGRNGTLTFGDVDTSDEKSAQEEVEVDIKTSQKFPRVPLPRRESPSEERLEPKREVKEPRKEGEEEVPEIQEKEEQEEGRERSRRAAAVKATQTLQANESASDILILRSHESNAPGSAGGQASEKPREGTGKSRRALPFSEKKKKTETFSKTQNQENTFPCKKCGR
UniProt Q8IXS8: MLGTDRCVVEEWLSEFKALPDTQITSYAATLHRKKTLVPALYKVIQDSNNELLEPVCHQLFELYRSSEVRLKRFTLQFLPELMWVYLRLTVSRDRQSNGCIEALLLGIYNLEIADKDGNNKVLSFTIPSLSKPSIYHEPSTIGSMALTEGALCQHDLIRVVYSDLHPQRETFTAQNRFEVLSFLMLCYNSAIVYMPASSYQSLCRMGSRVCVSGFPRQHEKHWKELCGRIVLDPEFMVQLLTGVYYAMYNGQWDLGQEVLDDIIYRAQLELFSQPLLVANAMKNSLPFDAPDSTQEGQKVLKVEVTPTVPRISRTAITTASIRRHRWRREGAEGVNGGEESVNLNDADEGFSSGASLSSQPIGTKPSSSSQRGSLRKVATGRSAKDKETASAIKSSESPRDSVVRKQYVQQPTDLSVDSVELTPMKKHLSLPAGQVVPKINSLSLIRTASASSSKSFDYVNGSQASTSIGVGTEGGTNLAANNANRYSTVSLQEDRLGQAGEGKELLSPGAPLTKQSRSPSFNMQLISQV
UniProt Q9NYF3: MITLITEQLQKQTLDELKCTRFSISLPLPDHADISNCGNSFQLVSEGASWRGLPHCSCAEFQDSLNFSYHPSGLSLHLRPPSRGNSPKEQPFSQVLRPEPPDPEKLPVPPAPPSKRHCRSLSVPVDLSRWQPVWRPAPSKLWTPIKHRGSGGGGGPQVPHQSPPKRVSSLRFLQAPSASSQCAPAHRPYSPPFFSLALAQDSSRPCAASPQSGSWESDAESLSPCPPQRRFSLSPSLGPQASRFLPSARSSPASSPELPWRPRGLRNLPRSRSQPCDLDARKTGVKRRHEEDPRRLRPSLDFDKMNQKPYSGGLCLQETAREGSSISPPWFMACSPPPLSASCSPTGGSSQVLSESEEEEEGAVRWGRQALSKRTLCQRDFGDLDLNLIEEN
UniProt Q9UF56, whole entry: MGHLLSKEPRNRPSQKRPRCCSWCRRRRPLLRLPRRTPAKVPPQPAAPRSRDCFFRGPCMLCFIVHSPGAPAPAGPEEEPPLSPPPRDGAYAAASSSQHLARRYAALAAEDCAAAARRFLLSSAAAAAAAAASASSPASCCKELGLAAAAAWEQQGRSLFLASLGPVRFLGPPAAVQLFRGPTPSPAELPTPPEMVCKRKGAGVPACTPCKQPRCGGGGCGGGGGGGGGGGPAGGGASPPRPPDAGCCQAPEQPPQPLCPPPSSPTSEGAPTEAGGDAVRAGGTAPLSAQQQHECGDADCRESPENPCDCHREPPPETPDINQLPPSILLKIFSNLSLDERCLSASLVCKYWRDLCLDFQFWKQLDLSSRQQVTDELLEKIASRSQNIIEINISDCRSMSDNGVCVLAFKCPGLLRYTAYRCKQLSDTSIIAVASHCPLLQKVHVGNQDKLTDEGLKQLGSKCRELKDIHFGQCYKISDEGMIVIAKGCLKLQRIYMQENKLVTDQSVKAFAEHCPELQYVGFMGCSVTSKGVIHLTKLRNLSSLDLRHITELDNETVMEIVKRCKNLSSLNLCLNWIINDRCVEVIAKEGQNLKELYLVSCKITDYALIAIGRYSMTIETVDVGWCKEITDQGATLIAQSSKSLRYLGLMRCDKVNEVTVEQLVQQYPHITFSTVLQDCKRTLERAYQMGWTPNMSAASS

compound: Nc1nc2c(ncn2[C@@H]2O[C@H](COP(=O)(O)OP(=O)(O)OP(=O)(O)O)[C@@H](O)[C@H]2O)c(=O)[nH]1; assay: dose-dependent thermal stabilisation call (2D-TPP, DLPTP, 10% FDR) (binary (1 = stabilised)); higher = stabilised by the compound; conditions: system: Jurkat gel-filtered lysate; concentration range 1-500 µM
Method: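 2D thermal proteome profiling in gel-filtered Jurkat E6.1 lysate (2 mg/ml) treated with NaGTP (0, 1, 10, 100, 500 uM) for 10 min at room temperature, then heated 3 min at one of 12 temperatures (42-63.9 C). Soluble protein was quantified by TMT10 MS. The value is the DLPTP call of the paper: dose-dependent thermal stabilisation over all temperatures at 10% FDR (F-test of a dose-response against a flat model); one experiment, one call per tested protein.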

| Target | dose-dependent thermal stabilisation call |
| --- | --- |
| ELF1 (UniProt P32519) | inactive: 0 |
| FAM122A (UniProt Q96E09) | inactive: 0 |
| EIF4A2 (UniProt Q14240) | inactive: 0 |
| FAM208B (UniProt Q5VWN6) | inactive: 0 |
| EIF5A (UniProt P63241) | inactive: 0 |
| EIF4A3 (UniProt P38919) | active: 1 |
| EIF1B (UniProt O60739) | inactive: 0 |
| EFEMP1 (UniProt Q12805) | inactive: 0 |
| EIF3D (UniProt O15371) | inactive: 0 |
| FABP5 (UniProt Q01469) | inactive: 0 |
| FIGNL1 (UniProt Q6PIW4) | inactive: 0 |
| FBXO38 (UniProt Q6PIJ6) | inactive: 0 |
| FAM49B (UniProt Q9NUQ9) | inactive: 0 |
| FTL (UniProt P02792) | inactive: 0 |
| FLII (UniProt Q13045) | inactive: 0 |
| FAM104A (UniProt Q969W3) | inactive: 0 |
| EIF3CL (UniProt B5ME19) | inactive: 0 |
| EFHD2 (UniProt Q96C19) | inactive: 0 |
| FAM118A (UniProt Q9NWS6) | inactive: 0 |
| EIF4H (UniProt Q15056) | inactive: 0 |

Random excerpt: 2 entries already listed, in no set order.

| Target | dose-dependent thermal stabilisation call |
| --- | --- |
| EIF4H (UniProt Q15056) | inactive: 0 |
| FLII (UniProt Q13045) | inactive: 0 |

The listing continues.

| Target | dose-dependent thermal stabilisation call |
| --- | --- |
| ENPP4 (UniProt Q9Y6X5) | inactive: 0 |
| EIF4EBP2 (UniProt Q13542) | inactive: 0 |
| EXOSC6 (UniProt Q5RKV6) | inactive: 0 |
| FKBP5 (UniProt Q13451) | inactive: 0 |
| EYA3 (UniProt Q99504) | inactive: 0 |
| ESPL1 (UniProt Q14674) | inactive: 0 |
| FAAP100 (UniProt Q0VG06) | inactive: 0 |
| EIF3L (UniProt Q9Y262) | inactive: 0 |
| ELMSAN1 (UniProt Q6PJG2) | inactive: 0 |
| FAM126B (UniProt Q8IXS8) | inactive: 0 |
| EXOC1 (UniProt Q9NV70) | inactive: 0 |
| EHD1 (UniProt Q9H4M9) | active: 1 |
| ENSA (UniProt O43768) | inactive: 0 |
| FAM53C (UniProt Q9NYF3) | inactive: 0 |
| FBXL17 (UniProt Q9UF56) | inactive: 0 |
| EIF4E2 (UniProt O60573) | inactive: 0 |
| ETFA (UniProt P13804) | inactive: 0 |
| ENO1 (UniProt P06733) | inactive: 0 |
| FAM32A (UniProt Q9Y421) | inactive: 0 |
| EPDR1 (UniProt Q9UM22) | inactive: 0 |
